According to PMC9657779, “Regulatory Role of Sphingosine-1-Phosphate and C16:0 Ceramide, in Immunogenic Cell Death of Colon Cancer Cells Induced by Bak/Bax-Activation” (Cancers, 2022):
These are yes or no findings as the source states them, for the method shown. Some entries that bind do so weakly or less than the wild type.

How the values were obtained:
[1] = target: calreticulin (human (endogenous in DLD-1)) (UniProt P27797); experiment: condition: only in DLD-1 cells over-expressing GFP-SphK1; non-reducing SDS-PAGE and Western blot; DLD-1 cells over-expressing GFP-SphK1, treated with ABT/AZD (0.25/0.125 µM) and PF-543 (100 nM) in 5% dlFBS for 24 h; dimerization of CRT detected by Western blot
[2] = target: calreticulin (human (endogenous in DLD-1)) (UniProt P27797); experiment: non-reducing SDS-PAGE and Western blot; DLD-1 cells treated with ABT/AZD with or without PF-543 and the Casp8 inhibitor z-IETD-fmk; dimeric and monomeric forms of CRT on a Western blot
[3] = target: calreticulin (human (endogenous in DLD-1)) (UniProt P27797); experiment: condition: only with the Casp8 inhibitor z-IETD-fmk; non-reducing SDS-PAGE and Western blot; DLD-1 cells treated with ABT/AZD with or without PF-543 and the Casp8 inhibitor z-IETD-fmk; dimeric and monomeric forms of CRT on a Western blot

- binding [1]: no binding
- binding [2]: binds
- binding [3]: no binding
B1: calreticulin (natural protein, human (endogenous in DLD-1), UniProt P27797 18-417, looked up)
chain: EPAVYFKEQFLDGDGWTSRWIESKHKSDFGKFVLSSGKFYGDEEKDKGLQTSQDARFYALSASFEPFSNKGQTLVVQFTVKHEQNIDCGGGYVKLFPNSLDQTDMHGDSEYNIMFGPDICGPGTKKVHVIFNYKGKNVLINKDIRCKDDEFTHLYTLIVRPDNTYEVKIDNSQVESGSLEDDWDFLPPKKIKDPDASKPEDWDERAKIDDPTDSKPEDWDKPEHIPDPDAKKPEDWDEEMDGEWEPPVIQNPEYKGEWKPRQIDNPDYKGTWIHPEIDNPEYSPDPSIYAYDNFGVLGLDLWQVKSGTIFDNFLITNDEAYAEEFGNETWGVTKAAEKQMKDKQDEEQRLKEEEEDKKRKEEEEAEDKEDDEDKDEDEEDEEDKEEDEEEDVPGQAKDEL
notes: calreticulin (CRT), the normally ER resident chaperone, endogenous in human colorectal DLD-1 cells; Seen as a disulfide-linked dimer on Western blots run under non-reducing conditions; also called CRT; ectoCRT; source: endogenous, DLD-1 whole cell lysate (RIPA)
